In paper PMC10613311:
Results are given in words; binding and its absence hold for the method and conditions named. In cells and extracts the contact can be indirect. Some entries that bind do so weakly or less than the wild type.

Sequences of proteins named here, by UniProt entry; tags and fusion partners are left off.
UniProt Q08874: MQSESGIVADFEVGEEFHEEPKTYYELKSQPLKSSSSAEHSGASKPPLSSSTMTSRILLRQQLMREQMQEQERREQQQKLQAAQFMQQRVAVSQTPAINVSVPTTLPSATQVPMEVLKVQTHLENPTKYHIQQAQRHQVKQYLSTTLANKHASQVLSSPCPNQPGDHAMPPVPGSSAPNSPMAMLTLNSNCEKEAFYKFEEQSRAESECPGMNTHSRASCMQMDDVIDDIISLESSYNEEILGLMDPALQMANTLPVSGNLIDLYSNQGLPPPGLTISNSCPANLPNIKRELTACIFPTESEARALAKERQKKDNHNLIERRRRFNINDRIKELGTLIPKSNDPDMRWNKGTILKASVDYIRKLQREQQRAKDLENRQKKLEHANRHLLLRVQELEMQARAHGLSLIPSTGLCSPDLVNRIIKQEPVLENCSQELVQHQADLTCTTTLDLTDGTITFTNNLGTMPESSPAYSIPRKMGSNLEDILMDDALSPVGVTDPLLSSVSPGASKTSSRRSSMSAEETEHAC

What was measured:
[1] = biological target: microphthalmia-associated transcription factor (mouse (endogenous in B16F10)) (UniProt Q08874); test: co-IP; 700 ug of proteins from nuclear and cytosolic extracts after cyto-nuclear fractionation; 6 ug of specific antibodies with Dynabeads Protein G; immunoblot; nuclear enrichment of pigmented B16F10 WT cells
[2] = biological target: microphthalmia-associated transcription factor (mouse (endogenous in B16F10)) (UniProt Q08874); test: proximity ligation; in situ PLA (Duolink In Situ Red Mouse/Rabbit kit) on fixed, permeabilised B16F10 WT and TG2 KO cells, with or without pigmentation induction; anti-TG2 (rabbit) and anti-MITF (mouse); confocal imaging, dots per cell

B1: Transglutaminase Type-2 (enzyme, UniProt P21981 1-686)
chain: MAEELLLERCDLEIQANGRDHHTADLCQEKLVLRRGQRFRLTLYFEGRGYEASVDSLTFGAVTGPDPSEEAGTKARFSLSDNVEEGSWSASVLDQQDNVLSLQLCTPANAPIGLYRLSLEASTGYQGSSFVLGHFILLYNAWCPADDVYLDSEEERREYVLTQQGFIYQGSVKFIKSVPWNFGQFEDGILDTCLMLLDMNPKFLKNRSRDCSRRSSPIYVGRVVSAMVNCNDDQGVLLGRWDNNYGDGISPMAWIGSVDILRRWKEHGCQQVKYGQCWVFAAVACTVLRCLGIPTRVVTNYNSAHDQNSNLLIEYFRNEFGELESNKSEMIWNFHCWVESWMTRPDLQPGYEGWQAIDPTPQEKSEGTYCCGPVSVRAIKEGDLSTKYDAPFVFAEVNADVVDWIRQEDGSVLKSINRSLVVGQKISTKSVGRDDREDITHTYKYPEGSPEEREVFTKANHLNKLAEKEETGVAMRIRVGDSMSMGNDFDVFAHIGNDTSETRECRLLLCARTVSYNGVLGPECGTEDINLTLDPYSENSIPLRILYEKYSGCLTESNLIKVRGLLIEPAANSYLLAERDLYLENPEIKIRVLGEPKQNRKLVAEVSLKNPLSDPLYDCIFTVEGAGLTKEQKSVEVSDPVPAGDLVKARVDLFPTDIGLHKLVVNFQCDKLKSVKGYRNVIIGPA
With B1 the binding [1] was “binds” and the binding [2] was “binds”.
